From patent US20240390329A1, “APPLICATION OF CHANNEL BLOCKER IN PREPARATION OF DRUGS FOR TREATING AND/OR PREVENTING LIVER FIBROSIS” (Affiliated Hospital of Zunyi Medical University, priority 2023, published 2024)
At least one structure is not confirmed: it was looked up by name or label, or the drawing left a doubt.

Tested on: HSCs (α-SMA, LC3, p62 expression)
Test: Western blotting of α-SMA, LC3 and p62 in HSCs after addition of autophagy agonist rapamycin
Assay type: cell-based
Conditions: TGF-β1+PHT+Rapamycin vs PHT sodium and TGF-β1 group; p<0.05

CO[C@H]1C[C@@H]2CC[C@@H](C)[C@@](O)(O2)C(=O)C(=O)N2CCCC[C@H]2C(=O)O[C@H]([C@H](C)C[C@@H]2CC[C@@H](O)[C@H](OC)C2)CC(=O)[C@H](C)/C=C(\C)[C@@H](O)[C@@H](OC)C(=O)[C@H](C)C[C@H](C)/C=C/C=C/C=C/1C [rapamycin]
expression of autophagy substrate protein P62 in HSCs: decreased
expression of autophagy-related protein LC3 in HSCs: increased
expression of α-SMA in HSCs: increased
